# Reference: the supplement of paper PMC8728848
# The other results are listed elsewhere or left out.
# How the values were obtained:
# Assay in all cases: glycan array binding signal (z-score within array); higher = stronger binding
# Details in all cases: glycan notation: IUPAC condensed, linker removed
# [1] = biological target: GlcNAc(b1-2)Gal(b1-3)GalNAc
# How it was run: (§1)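 The binding signal is a Z-score computed within each array and averaged over linkers. Arrays of the same protein sequence at different concentrations or buffers were also averaged together. Data originate from 3228 arrays in the Consortium for Functional Glycomics database, kept only where the protein sequence was available.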
# [2] = biological target: GlcNAc(b1-2)Man(a1-3)[GlcNAc(b1-2)Man(a1-6)]Man(b1-4)GlcNAc(b1-4)GlcNAc
# How it was run: as §1
# [3] = biological target: GlcNAc(b1-2)Man(a1-3)[GlcNAc(b1-2)Man(a1-6)]Man(b1-4)GlcNAc(b1-4)[Fuc(a1-6)]GlcNAc
# How it was run: as §1
# [4] = biological target: GlcNAc(b1-2)Man(a1-3)[GlcNAc(b1-4)][GlcNAc(b1-2)Man(a1-6)]Man(b1-4)GlcNAc(b1-4)GlcNAc
# How it was run: as §1
# [5] = biological target: GlcNAc(b1-2)Man(a1-3)[GlcNAc(b1-4)][GlcNAc(b1-2)Man(a1-6)]Man(b1-4)GlcNAc(b1-4)[Fuc(a1-6)]GlcNAc
# How it was run: as §1
# [6] = biological target: GlcNAc(b1-2)[GlcNAc(b1-4)]Man(a1-3)[GlcNAc(b1-2)Man(a1-6)]Man(b1-4)GlcNAc(b1-4)GlcNAc
# How it was run: as §1
# [7] = biological target: GlcNAc(b1-2)[GlcNAc(b1-4)]Man(a1-3)[GlcNAc(b1-4)][GlcNAc(b1-2)Man(a1-6)]Man(b1-4)GlcNAc(b1-4)GlcNAc
# How it was run: as §1
# [8] = biological target: GlcNAc(b1-2)[GlcNAc(b1-4)]Man(a1-3)[GlcNAc(b1-4)][GlcNAc(b1-2)[GlcNAc(b1-6)]Man(a1-6)]Man(b1-4)GlcNAc(b1-4)GlcNAc
# How it was run: as §1
# [9] = biological target: GlcNAc(b1-2)[GlcNAc(b1-4)]Man(a1-3)[GlcNAc(b1-4)][GlcNAc(b1-2)[GlcNAc(b1-6)]Man(a1-6)]Man(b1-4)GlcNAc(b1-4)[Fuc(a1-6)]GlcNAc
# How it was run: as §1
# [10] = biological target: GlcNAc(b1-2)[GlcNAc(b1-6)]Man(a1-6)[GlcNAc(b1-2)Man(a1-3)]Man(b1-4)GlcNAc(b1-4)GlcNAc
# How it was run: as §1
# [11] = biological target: GlcNAc(b1-2)[GlcNAc(b1-6)]Man(a1-6)[GlcNAc(b1-2)Man(a1-3)]Man(b1-4)GlcNAc(b1-4)[Fuc(a1-6)]GlcNAc
# How it was run: as §1
# [12] = biological target: GlcNAc(b1-2)[GlcNAc(b1-6)]Man(a1-6)[GlcNAc(b1-4)][GlcNAc(b1-2)Man(a1-3)]Man(b1-4)GlcNAc(b1-4)GlcNAc
# How it was run: as §1
# GlcNAc(b1-3)Fuc = biological target: GlcNAc(b1-3)Fuc
# How it was run: as §1
# GlcNAc(b1-3)Gal = biological target: GlcNAc(b1-3)Gal
# How it was run: as §1
# [13] = biological target: GlcNAc(b1-3)Gal(b1-3)GalNAc
# How it was run: as §1
# GlcNAc(b1-3)Gal(b1-4)Glc = biological target: GlcNAc(b1-3)Gal(b1-4)Glc
# How it was run: as §1
# [14] = biological target: GlcNAc(b1-3)Gal(b1-4)GlcNAc
# How it was run: as §1
# [15] = biological target: GlcNAc(b1-3)Gal(b1-4)GlcNAc(b1-2)Man(a1-3)[GlcNAc(b1-3)Gal(b1-4)GlcNAc(b1-2)Man(a1-6)]Man(b1-4)GlcNAc(b1-4)GlcNAc
# How it was run: as §1
# [16] = biological target: GlcNAc(b1-3)Gal(b1-4)GlcNAc(b1-2)Man(a1-3)[GlcNAc(b1-3)Gal(b1-4)GlcNAc(b1-2)Man(a1-6)]Man(b1-4)GlcNAc(b1-4)[Fuc(a1-6)]GlcNAc
# How it was run: as §1
# [17] = biological target: GlcNAc(b1-3)Gal(b1-4)GlcNAc(b1-2)[GlcNAc(b1-3)Gal(b1-4)GlcNAc(b1-6)]Man(a1-6)[GlcNAc(b1-3)Gal(b1-4)GlcNAc(b1-2)Man(a1-3)]Man(b1-4)GlcNAc(b1-4)GlcNAc
# How it was run: as §1
# [18] = biological target: GlcNAc(b1-3)Gal(b1-4)GlcNAc(b1-3)Gal(b1-4)GlcNAc
# How it was run: as §1
# [19] = biological target: GlcNAc(b1-3)Gal(b1-4)GlcNAc(b1-3)Gal(b1-4)GlcNAc(b1-2)Man(a1-3)[GlcNAc(b1-3)Gal(b1-4)GlcNAc(b1-3)Gal(b1-4)GlcNAc(b1-2)Man(a1-6)]Man(b1-4)GlcNAc(b1-4)GlcNAc
# How it was run: as §1
# [20] = biological target: GlcNAc(b1-3)Gal(b1-4)GlcNAc(b1-3)Gal(b1-4)GlcNAc(b1-2)Man(a1-3)[GlcNAc(b1-3)Gal(b1-4)GlcNAc(b1-3)Gal(b1-4)GlcNAc(b1-2)Man(a1-6)]Man(b1-4)GlcNAc(b1-4)[Fuc(a1-6)]GlcNAc
# How it was run: as §1
# [21] = biological target: GlcNAc(b1-3)Gal(b1-4)GlcNAc(b1-3)Gal(b1-4)GlcNAc(b1-2)[GlcNAc(b1-3)Gal(b1-4)GlcNAc(b1-3)Gal(b1-4)GlcNAc(b1-6)]Man(a1-6)[GlcNAc(b1-3)Gal(b1-4)GlcNAc(b1-3)Gal(b1-4)GlcNAc(b1-2)Man(a1-3)]Man(b1-4)GlcNAc(b1-4)[Fuc(a1-6)]GlcNAc
# How it was run: as §1
# [22] = biological target: GlcNAc(b1-3)Gal(b1-4)GlcNAc(b1-3)Gal(b1-4)GlcNAc(b1-3)Gal(b1-4)GlcNAc(b1-2)Man(a1-3)[GlcNAc(b1-3)Gal(b1-4)GlcNAc(b1-3)Gal(b1-4)GlcNAc(b1-3)Gal(b1-4)GlcNAc(b1-2)Man(a1-6)]Man(b1-4)GlcNAc(b1-4)GlcNAc
# How it was run: as §1
# [23] = biological target: GlcNAc(b1-3)Gal(b1-4)GlcNAc(b1-3)Gal(b1-4)GlcNAc(b1-3)Gal(b1-4)GlcNAc(b1-2)Man(a1-3)[GlcNAc(b1-3)Gal(b1-4)GlcNAc(b1-3)Gal(b1-4)GlcNAc(b1-3)Gal(b1-4)GlcNAc(b1-2)Man(a1-6)]Man(b1-4)GlcNAc(b1-4)[Fuc(a1-6)]GlcNAc
# How it was run: as §1
# [24] = biological target: GlcNAc(b1-3)Gal(b1-4)GlcNAc(b1-3)Gal(b1-4)GlcNAc(b1-3)Gal(b1-4)GlcNAc(b1-2)[GlcNAc(b1-3)Gal(b1-4)GlcNAc(b1-3)Gal(b1-4)GlcNAc(b1-3)Gal(b1-4)GlcNAc(b1-6)]Man(a1-6)[GlcNAc(b1-3)Gal(b1-4)GlcNAc(b1-3)Gal(b1-4)GlcNAc(b1-3)Gal(b1-4)GlcNAc(b1-2)Man(a1-3)]Man(b1-4)GlcNAc(b1-4)[Fuc(a1-6)]GlcNAc
# How it was run: as §1
# [25] = biological target: GlcNAc(b1-3)Gal(b1-4)GlcNAc(b1-3)Gal(b1-4)GlcNAc(b1-3)Gal(b1-4)GlcNAc(b1-3)Gal(b1-4)GlcNAc(b1-2)Man(a1-3)[GlcNAc(b1-3)Gal(b1-4)GlcNAc(b1-3)Gal(b1-4)GlcNAc(b1-3)Gal(b1-4)GlcNAc(b1-3)Gal(b1-4)GlcNAc(b1-2)Man(a1-6)]Man(b1-4)GlcNAc(b1-4)GlcNAc
# How it was run: as §1
# [26] = biological target: GlcNAc(b1-3)Gal(b1-4)GlcNAc(b1-3)Gal(b1-4)GlcNAc(b1-3)Gal(b1-4)GlcNAc(b1-3)Gal(b1-4)GlcNAc(b1-2)Man(a1-3)[GlcNAc(b1-3)Gal(b1-4)GlcNAc(b1-3)Gal(b1-4)GlcNAc(b1-3)Gal(b1-4)GlcNAc(b1-3)Gal(b1-4)GlcNAc(b1-2)Man(a1-6)]Man(b1-4)GlcNAc(b1-4)[Fuc(a1-6)]GlcNAc
# How it was run: as §1
# [27] = biological target: GlcNAc(b1-3)Gal(b1-4)GlcNAc(b1-3)Gal(b1-4)GlcNAc(b1-3)Gal(b1-4)GlcNAc(b1-3)Gal(b1-4)GlcNAc(b1-2)[GlcNAc(b1-3)Gal(b1-4)GlcNAc(b1-3)Gal(b1-4)GlcNAc(b1-3)Gal(b1-4)GlcNAc(b1-3)Gal(b1-4)GlcNAc(b1-6)]Man(a1-6)[GlcNAc(b1-3)Gal(b1-4)GlcNAc(b1-3)Gal(b1-4)GlcNAc(b1-3)Gal(b1-4)GlcNAc(b1-3)Gal(b1-4)GlcNAc(b1-2)Man(a1-3)]Man(b1-4)GlcNAc(b1-4)[Fuc(a1-6)]GlcNAc
# How it was run: as §1
binder,measurement,setting,value
GS7807I-bvu-563-22-563 (Bacteroides vulgatus) (protein) IFSSCTDDFEKLNTSNIQVDPADLPFAAQCTEPMTYCYPPQQNMFQFWTNLTIDLYGGYFMTPNGNFTNGDMGENRGHSGGMYENYYLHIFNNTRRIIAQCDASGERGLSGVMRIVQAYGTLMTTDAYGPIPYSSILSGENEVYFEFDSQKDLYKAMLEDLSTAITDISAMGADEIAKLKSFDCWCNGDKDLWVKIANTMKLRMALRLSKRETEAGNAGMNLKAIATEAAQNTLATVNKDILIDKSLENEMWLMFNWGDCGFNANLVTIMSGTKDPRQPLYMTLNTGDIKNEAGTTTVAANSQYLGIRFASGLPAKPNSWGNFSGWIQGNNGSSYSMPLPIMKAAEAYFLLAEAKLRWDIGSESVKNLYENGIRVSMTNELAYRGAYAGIKEYPEGAVDAYINGTSTQIDYTDPIKAELSTPAVNKLSVKWDESASNEEKLERIITQKWLALFPLSTEGWAEQRRTGYPRFFPAFVNESNGAVNTEEGVRRVIYSSQAYDANAKGVEGGIKLLDEENSSKFGISGDKGGTHLWWDNADKGNF,glycan array binding signal (z-score),[1],0.388
same,glycan array binding signal (z-score),[2],-0.694
same,glycan array binding signal (z-score),[3],0.137
same,glycan array binding signal (z-score),[4],-0.554
same,glycan array binding signal (z-score),[5],-0.51
same,glycan array binding signal (z-score),[6],-1.46
same,glycan array binding signal (z-score),[7],-0.633
same,glycan array binding signal (z-score),[8],0.285
same,glycan array binding signal (z-score),[9],-1.04
same,glycan array binding signal (z-score),[10],-0.866
same,glycan array binding signal (z-score),[11],2.33
same,glycan array binding signal (z-score),[12],-0.587
same,glycan array binding signal (z-score),GlcNAc(b1-3)Fuc,-0.138
same,glycan array binding signal (z-score),GlcNAc(b1-3)Gal,-1.09
same,glycan array binding signal (z-score),[13],0.216
same,glycan array binding signal (z-score),GlcNAc(b1-3)Gal(b1-4)Glc,-1.17
same,glycan array binding signal (z-score),[14],0.136
same,glycan array binding signal (z-score),[15],-0.349
same,glycan array binding signal (z-score),[16],0.728
same,glycan array binding signal (z-score),[17],0.01
same,glycan array binding signal (z-score),[18],-0.488
same,glycan array binding signal (z-score),[19],2.79
same,glycan array binding signal (z-score),[20],0.107
same,glycan array binding signal (z-score),[21],1.6
same,glycan array binding signal (z-score),[22],0.54
same,glycan array binding signal (z-score),[23],-0.035
same,glycan array binding signal (z-score),[24],3.79
same,glycan array binding signal (z-score),[25],0.287
same,glycan array binding signal (z-score),[26],-0.08
same,glycan array binding signal (z-score),[27],2.23

# Random excerpt: two records from the list.
binder,measurement,setting,value
GS7807I-bvu-563-22-563 (Bacteroides vulgatus) (protein) IFSSCTDDFEKLNTSNIQVDPADLPFAAQCTEPMTYCYPPQQNMFQFWTNLTIDLYGGYFMTPNGNFTNGDMGENRGHSGGMYENYYLHIFNNTRRIIAQCDASGERGLSGVMRIVQAYGTLMTTDAYGPIPYSSILSGENEVYFEFDSQKDLYKAMLEDLSTAITDISAMGADEIAKLKSFDCWCNGDKDLWVKIANTMKLRMALRLSKRETEAGNAGMNLKAIATEAAQNTLATVNKDILIDKSLENEMWLMFNWGDCGFNANLVTIMSGTKDPRQPLYMTLNTGDIKNEAGTTTVAANSQYLGIRFASGLPAKPNSWGNFSGWIQGNNGSSYSMPLPIMKAAEAYFLLAEAKLRWDIGSESVKNLYENGIRVSMTNELAYRGAYAGIKEYPEGAVDAYINGTSTQIDYTDPIKAELSTPAVNKLSVKWDESASNEEKLERIITQKWLALFPLSTEGWAEQRRTGYPRFFPAFVNESNGAVNTEEGVRRVIYSSQAYDANAKGVEGGIKLLDEENSSKFGISGDKGGTHLWWDNADKGNF,glycan array binding signal (z-score),[12],-0.587
same,glycan array binding signal (z-score),[24],3.79
